From publication PMC11018626, “Sm-like protein Rof inhibits transcription termination factor ρ by binding site obstruction and conformational insulation” (Nature Communications, 2023) come the findings set out here.

Chains of the proteins cited; added tags and fusions are not shown. Lines headed by an entry give the natural chain unless they say otherwise; changes in a name come on top.
UniProt P0AG30: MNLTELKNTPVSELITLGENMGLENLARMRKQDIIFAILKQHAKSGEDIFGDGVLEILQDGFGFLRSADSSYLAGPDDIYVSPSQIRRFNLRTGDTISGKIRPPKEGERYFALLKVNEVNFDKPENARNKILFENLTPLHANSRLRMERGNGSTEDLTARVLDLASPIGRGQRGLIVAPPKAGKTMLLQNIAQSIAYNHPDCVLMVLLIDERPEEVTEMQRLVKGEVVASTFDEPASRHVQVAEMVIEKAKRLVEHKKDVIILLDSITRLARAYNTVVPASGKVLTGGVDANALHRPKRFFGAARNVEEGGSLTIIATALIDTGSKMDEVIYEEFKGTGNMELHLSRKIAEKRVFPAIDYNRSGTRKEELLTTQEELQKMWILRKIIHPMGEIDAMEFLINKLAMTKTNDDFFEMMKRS

For assay [1], the target named is Transcription termination factor ρ R88E (E. coli) (E. coli) (UniProt P0AG30). Nature of the assay: SEC; analytical SEC, Superdex S200 PC 3.2 column, 5 µM ρ and 90 µM Rof/variants mixed in reaction buffer (20 mM Tris-HCl pH 8.0, 120 mM KOAc, 5 mM Mg(OAc)2, 2 mM DTT), 32 °C 10 min, run at 4 °C; fractions analysed by SDS-PAGE; both purified. A general note: Size exclusion chromatography separates by hydrodynamic size, large species first.

Assay [2] has as its target Transcription termination factor ρ, wild type (E. coli) (E. coli) (UniProt P0AG30). The description is as above.

These are yes or no findings as the source states them, for the method shown. For part of these data: Sequences can lack the tags named with a protein.

B1: Rof, wild type, tag-less (E. coli) (natural protein)
chain: MNDTYQPINCDDYDNLELACQHHLMLTLELKDGEKLQAKASDLVSRKNVEYLVVEAAGETRELRLDKITSFSHPEIGTVVVSES
notes: Rof (YaeO), E. coli; codon-optimised rof gene; the C-terminal residue is printed as S84 (84-residue form); the residue numbers used (I8 to S84) fit the 84-residue form; also called Rof^wt; ecRof; source: E. coli RIL (BL21), purified (Ni2+-NTA, TEV protease, Superdex 75)
Take B1: in assay [1], the binding result was “no binding (tested: 5 µM ρ and 90 µM Rof)”.

B2: Rof Y13A (E. coli) (natural protein)
chain: MNDTYQPINCDDADNLELACQHHLMLTLELKDGEKLQAKASDLVSRKNVEYLVVEAAGETRELRLDKITSFSHPEIGTVVVSES
With B2, the binding entry in assay [2] is “no binding (tested: 5 µM ρ and 90 µM Rof variant)”.

B3: Rof D14A (E. coli) (natural protein)
chain: MNDTYQPINCDDYANLELACQHHLMLTLELKDGEKLQAKASDLVSRKNVEYLVVEAAGETRELRLDKITSFSHPEIGTVVVSES
Regarding B3, the binding result in assay [2] is “no binding (tested: 5 µM ρ and 90 µM Rof variant)”.
